Laboratory results reported in paper doi:10.1101/2025.02.21.639493.

B1: RDM4 (endogenous) (protein, UniProt Q8GYP3 1-346)
chain: MDGVGESSTQNEVEEKPVIVRVKRKVGQSLLDAFWLEINERPLKRPTLDFSKLSISDSGERGPSVAEDVKPKKVLVRHLETVTDSETTADIIHSFFESDHNEKSCSKGKFEERKIAFKKDNRKEQRLTKSVQKQQIASENARFEQIWRSRKGNKEGIHEKCHFFDVIRVDTEERRDNAQEFTSLEDQKMLASFLPLLRECIPTAAEEIEADIQSSHTEEYVYDYYAVNEEMDISEDSSKNQFPLVIVEDEEEFCDGSDESDYDSEDSNAEDHPKTDYPEEEEEEEEEDDDDDDDDESEEEKSEASDESDDEETSKRHVRSVLGDDEFDDYAEDVYGYSESDEEFES
B2: REM12 (endogenous) (protein, UniProt P0CAP4 1-446)
chain: MVLNSSDLGPSRCDIRDLPAPSSTNDQGKTELARKKKVKRSNTEIEADASSSDNSCFVALVTASNLRKDALYLPQDLTSSVGLERKYREIVVTDERERRSWALDLRFNKSSDTFYISRGWRSFCDENGKKPGGVFVFKLVGNRETPVLSFCSTESINDGTQGHKNNKYNCMELKSKKKRMRCRDSTSPSQNRFMTLTLTHDNLIKSRRYLPLSFTRDNGLDKPGMIFLLGKTGRKWEANLLREASGRIVLTGKGWKEFAMANGLKSGELFTLEAILEKGTPMLSLVNTQSTNYRSQQGECSRDSEKESSICAEPSRGNKKWKATNNRKERRDSSSAIQNRYVTLTLTPEDVRACTLILPSQFMKANGINKLGKKTLLGQNRKKWFAYLLSKSGFVALGSGWKGFCEANGVKTGESFNLEYIDEQDTTPVFKFCSNSVEYVKFTSLP
B3: CLASSY 3 (CLSY3) (endogenous) (protein, UniProt F4I8S3 1-1410)
chain: MECIGKRVKSRSWQRLQAVNKRKKMETVAPVTSPPKKRRQKKPKNYDSDIEDITPTCNDSVPPPQVSNMYSVPNNSVKESFSRIMRDLNVEKKSGPSSSRLTDGSEQNPCLKERSFRVSDLGVEKKCSPEITDLDVGIPVPRFSKLKDVSEQKNTCLMQKSSPEIADLDLVISVPSSSVLKDVSEEIRFLKDKCSPEIRGLVLEKSVPGEIEILSDSESETEARRRASAKKKLFEESSRIVESISDGEDSSSETDEEEEENQDSEDNNTKDNVTVESLSSEDPSSSSSSSSSSSSSSSSSSSDDESYVKEVVGDNRDDDDLRKASSPIKRVSLVERKALVRYKRSGSSLTKPRERDNKIQKLNHREEEKKERQREVVRVVTKQPSNVVYTCAHCGKENTGNPESHSSFIRPHSIRDEIEDVNNFASTNVSKYEDSVSINSGKTTGAPSRPEVENPETGKELNTPEKPSISRPEIFTTEKAIDVQVPEEPSRPEIYSSEKAKEVQAPEMPSRPEVFSSEKAKEIQVPEMPSIPEIQNSEKAKEVQANNRMGLTTPAVAEGLNKSVVTNEHIEDDSDSSISSGDGYESDPTLKDKEVKINNHSDWRILNGNNKEVDLFRLLVNSVWEKGQLGEEDEADELVSSAEDQSQEQAREDHRKYDDAGLLIIRPPPLIEKFGVEEPQSPPVVSEIDSEEDRLWEELAFFTKSNDIGGNELFSNVEKNISANETPAAQCKKGKHDLCIDLEVGLKCMHCGFVEREIRSMDVSEWGEKTTRERRKFDRFEEEEGSSFIGKLGFDAPNNSLNEGCVSSEGTVWDKIPGVKSQMYPHQQEGFEFIWKNLAGTIMLNELKDFENSDETGGCIMSHAPGTGKTRLTIIFLQAYLQCFPDCKPVIIAPASLLLTWAEEFKKWNISIPFHNLSSLDFTGKENSAALGLLMQKNATARSNNEIRMVKIYSWIKSKSILGISYNLYEKLAGVKDEDKKTKMVREVKPDKELDDIREILMGRPGLLVLDEAHTPRNQRSCIWKTLSKVETQKRILLSGTPFQNNFLELCNVLGLARPKYLERLTSTLKKSGMTVTKRGKKNLGNEINNRGIEELKAVMLPFVHVHKGSILQSSLPGLRECVVVLNPPELQRRVLESIEVTHNRKTKNVFETEHKLSLVSVHPSLVSRCKISEKERLSIDEALLAQLKKVRLDPNQSVKTRFLMEFVELCEVIKEKVLVFSQYIDPLKLIMKHLVSRFKWNPGEEVLYMHGKLEQKQRQTLINEFNDPKSKAKVFLASTKACSEGISLVGASRVILLDVVWNPAVERQAISRAYRIGQKRIVYTYHLVAKGTPEGPKYCKQAQKDRISELVFACSSRHDKGKEKIAEAVTEDKVLDTMVEHSKLGDMFDNLIVQPKEADLVEGFSILMP

target: VDD, 3FLAG-tagged (pVDD:VDD-3FLAG) (Arabidopsis (Col-0)); experiment: affinity purification with mass spectrometry

binding | Binder
binds | B1
binds | B2
binds | B3

No constants are given. Whether binding was seen depends on the method and setting. In cells and extracts the contact can be indirect. These calls come from enrichment with a bait or labelling near it, and not all partners need be listed.
